No constants are given. Whether binding was seen depends on the method and setting. For part of these data: In cells and extracts the contact can be indirect. Some entries that bind do so weakly or less than the wild type.
How the values were obtained:
[1] = biological target: MDM2 (endogenous) (human (endogenous in MDA-MB-231)) (UniProt Q00987); experiment: proximity ligation; Duolink PLA on fixed, permeabilised cells (MDA-MB-231) treated with vehicle or 30 μM cisplatin for 24 h (PIPKIα siRNA as control); nuclear foci counted
[2] = biological target: MDM2 (endogenous) (human (endogenous in MDA-MB-231)) (UniProt Q00987); experiment: co-IP; endogenous MDM2 immunoprecipitated with anti-MDM2 (SMP14) agarose from RIPA lysates, 4 °C 24 h, IB; cells treated with vehicle or 30 μM cisplatin for 24 h
[3] = biological target: His-tagged MDM2 (recombinant, bacteria-expressed) (UniProt Q00987); experiment: pull-down; recombinant MDM2 (0.1-1 μg) incubated with one recombinant partner, pulled down with anti-MDM2 (SMP14) agarose, IB; overnight 4 °C in 50 mM Tris-HCl pH 8.0, 50 mM NaCl, 80 mM KCl, 0.05% Tween-20; PIP2 (0-50 μM) added in some panels; both purified

Protein sequences, listed by entry. Tags and fused reporters are not part of them.
UniProt Q00987: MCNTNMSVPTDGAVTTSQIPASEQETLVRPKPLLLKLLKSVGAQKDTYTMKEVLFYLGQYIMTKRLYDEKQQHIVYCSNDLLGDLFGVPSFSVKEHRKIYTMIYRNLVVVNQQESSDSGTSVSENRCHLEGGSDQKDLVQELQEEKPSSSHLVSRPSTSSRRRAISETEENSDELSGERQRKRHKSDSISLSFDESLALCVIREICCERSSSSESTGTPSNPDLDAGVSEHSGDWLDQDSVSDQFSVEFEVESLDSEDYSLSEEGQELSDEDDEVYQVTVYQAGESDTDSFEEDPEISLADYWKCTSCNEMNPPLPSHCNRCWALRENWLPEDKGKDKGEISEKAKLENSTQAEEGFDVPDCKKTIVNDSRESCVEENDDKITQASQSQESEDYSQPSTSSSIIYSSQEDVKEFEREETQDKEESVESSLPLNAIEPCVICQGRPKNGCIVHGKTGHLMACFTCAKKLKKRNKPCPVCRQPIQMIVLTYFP
UniProt P04792: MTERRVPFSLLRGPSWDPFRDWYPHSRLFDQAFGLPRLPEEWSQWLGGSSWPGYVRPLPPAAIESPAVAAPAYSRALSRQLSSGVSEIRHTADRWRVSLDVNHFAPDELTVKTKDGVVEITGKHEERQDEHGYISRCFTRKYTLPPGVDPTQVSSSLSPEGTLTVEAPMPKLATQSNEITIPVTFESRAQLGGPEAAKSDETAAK
UniProt Q99755: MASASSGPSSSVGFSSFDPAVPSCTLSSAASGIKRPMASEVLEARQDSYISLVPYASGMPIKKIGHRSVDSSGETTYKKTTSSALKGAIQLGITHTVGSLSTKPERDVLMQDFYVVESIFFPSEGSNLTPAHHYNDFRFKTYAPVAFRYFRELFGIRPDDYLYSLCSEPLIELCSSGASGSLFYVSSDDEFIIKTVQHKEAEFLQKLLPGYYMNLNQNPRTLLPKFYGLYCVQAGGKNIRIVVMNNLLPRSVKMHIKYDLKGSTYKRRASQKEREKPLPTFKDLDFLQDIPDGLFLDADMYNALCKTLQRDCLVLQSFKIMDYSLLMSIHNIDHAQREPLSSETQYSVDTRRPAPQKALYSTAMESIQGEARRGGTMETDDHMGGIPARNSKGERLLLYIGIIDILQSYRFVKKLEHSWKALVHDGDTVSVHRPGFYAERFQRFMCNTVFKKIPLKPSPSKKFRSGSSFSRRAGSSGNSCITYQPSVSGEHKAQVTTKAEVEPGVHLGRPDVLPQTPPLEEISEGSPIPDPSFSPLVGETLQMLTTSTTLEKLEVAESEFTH

binding [1]	binding [2]	binding [3]	Substance
binds	binds	–	HSP27 (endogenous) (from UniProt P04792 1-205)
–	–	binds	HSP27 (recombinant, His-tagged) (from UniProt P04792 1-205)
binds	binds	–	PIPKIα (endogenous) (from UniProt Q99755 1-562) (enzyme)
–	–	binds	PIPKIα (recombinant, His-tagged) (from UniProt Q99755 1-562) (enzyme)
